According to PubChem BioAssay AID210 (DTP/NCI, 2004):
The list does not hold the whole screen: its compounds were picked by chemical class. Other doses and runs of a compound may be missing. T/C gives the treated animals as a percentage of the vehicle group. Some doses have a count of surviving animals in place of a T/C: the source files T/C as zero there, which appears to mark a toxic dose or a test without result, not a measured value. Counts of survivors are from the toxicity check (mostly the fifth day) where no day follows; animals may have died later. Schedule codes are those of the source, read here as Q, the interval in days (D) or hours (H), X, the number of doses. Where survival is the endpoint, the PubChem record calls one and a half times the control and up active, and a quarter to a half above the control has no call in these data; cut-offs in other NCI protocols can differ. Some entries were tested several times; the values are given in rising order.

Tested on: CD2F1 mice, ip Colon 26 adenocarcinoma, median survival T/C
Assay: NCI In Vivo Anticancer Drug Screen. Data for tumor model Colon 26 Adenocarcinoma (intraperitoneal) in CD2F1 (CDF1) mice
Details: T/C endpoint: median survival time, schedule: Q04DX003 (ip), higher T/C = longer survival
Experimental: The antitumor activity of compounds was measured in mice bearing transplantable tumors. Survival or tumor size were measured and the results are expressed as the measurement made in the treated group (T) divided by the measurement made in the vehicle treated control group (C). The tumor model used in this assay is Colon 26 Adenocarcinoma (intraperitoneal) in CD2F1 (CDF1) mice

SMILES	T/C (dose: 6.25 mg/kg/injection, vehicle: saline with Tween-80)	T/C (dose: 12.5 mg/kg/injection, vehicle: saline with Tween-80)	T/C (dose: 25.0 mg/kg/injection, vehicle: saline with Tween-80)	T/C (dose: 50.0 mg/kg/injection, vehicle: saline with Tween-80)	survivor count (dose: 100.0 mg/kg/injection, vehicle: saline with Tween-80)	T/C (dose: 12.5 mg/kg/injection, vehicle: Klucel (hydroxypropylcellulose) (HPC))	T/C (dose: 25.0 mg/kg/injection, vehicle: Klucel (hydroxypropylcellulose) (HPC))	T/C (dose: 50.0 mg/kg/injection, vehicle: Klucel (hydroxypropylcellulose) (HPC))	T/C (dose: 100.0 mg/kg/injection, vehicle: Klucel (hydroxypropylcellulose) (HPC))	T/C (dose: 200.0 mg/kg/injection, vehicle: Klucel (hydroxypropylcellulose) (HPC))	T/C (dose: 400.0 mg/kg/injection, vehicle: Klucel (hydroxypropylcellulose) (HPC))
Nc1cc([As]=O)ccc1O (stereo unspecified)	109 % of control	101 % of control	118 % of control	116 % of control	0 of 10						
CC(=O)OC(SC(OC(C)=O)C(Cl)(Cl)Cl)C(Cl)(Cl)Cl (stereo unspecified)						91 and 102 % of control	94 and 102 % of control	87 and 104 % of control	93 and 102 % of control	93 and 104 % of control	89 and 102 % of control
